This is an account of results in publication PMC8986778, “Citrullination of glucokinase is linked to autoimmune diabetes” (Nature Communications, 2022).

For the series, the system named is recombinant human pancreatic glucokinase. Briefly: Identification of citrullination sites in PAD-treated rhGK by LC-MS/MS. Conditions: PAD-treated rhGK (Hexokinase-4 with DDK tag, P35557), LC-MS/MS Orbitrap Fusion, Mascot search; residue numbered within the peptide. How it is done: For in vitro citrullination, 0.1U of rabbit peptidylarginine deiminase (PADI2; Sigma–Aldrich) were added to 50 µg of recombinant human pancreatic glucokinase (rhGK; LS-G3456, LSBio) in reaction buffer (0.1 M Tris-HCl, 10 mM CaCl2 and 5 mM DTT) at 37 °C for 2.5 hrs and kept at -80 °C in multiple aliquots to avoid freeze and thaw until used. Minimum 6 µg of rhGK and PAD-treated-rhGK were reduced, alkylated and tryptic digested for LS-MS/MS analysis. Data were collected on a QE-Plus mass spectrometer coupled to a NanoACQUITY UPLC (Waters Inc.). A Waters Symmetry® C18 180 μm × 20 mm trap column and a 1.7-μm, 75 μm × 250 mm nanoACQUITY UPLC column (35 °C) was utilized for the separation. Collected LC–MS/MS data were processed using Proteome Discoverer Software (v. 2.2, Thermo Fisher Scientific) and searched were carried out in MASCOT Search Engine (Matrix Science) using the below parameters; oxidation (M), deamidated (N/Q) and citrullination (R) as the variable modifications and carbamidomethylation (C) as a fixed modification. Mascot results were loaded into Scaffold Q + S 4.11.0 and then Scaffold PTM 3.3.0 was used to re-analyze MS/MS spectra identified as citrulline modified peptides. Calculated Ascore values for citrullinated peptides containing the neutral loss of isocyanic acid (−43 Da)[54] indicate the level of site localization probabilities to assess the level of confidence in each citrullination PTM localization. Scaffold PTM then combines localization probabilities for all peptides containing each identified PTM site to obtain the best estimated probability that a PTM is present at that particular site. Manual MS/MS inspection of the modified peptides were also carried out to ensure correct assignments/localizations of the citrullination sites (detailed MS/MS spectra are presented in Source Data-File 2 spreadsheet).

“Also recorded” adds a separate entry of the source.

Consider ASGAEGNNVVGLLRDAIK, for which the “Variable modifications: citrullinated (Deamidated R) residue identified in the tryptic peptide” value (“Variable modifications: citrullinated” below) is “R14 : Deamidated (R), with neutral losses 0.0000(shown in table), 43.0058”.

Regarding GAFETRFVSQVESDTGDR, the “Variable modifications: citrullinated” value was “R6 : Deamidated (R), with neutral losses 43.0058(shown in table), 0.0000”.

Turning to GAFETRFVSQVESDTGDRK, the “Variable modifications: citrullinated” value is recorded as “R6 : Deamidated (R), with neutral losses 0.0000(shown in table), 43.0058; also recorded: R18 : Deamidated (R), with neutral losses 0.0000(shown in table), 43.0058”.

In the case of GLRLETHEEASVK, the “Variable modifications: citrullinated” value was “R3 : Deamidated (R), with neutral losses 0.0000(shown in table), 43.0058”.

QIYNILSTLGLRPSTTDCDIVR: the “Variable modifications: citrullinated” value is reported as “R12 : Deamidated (R), with neutral losses 0.0000(shown in table), 43.0058”.

As for TRGAFETR, the “Variable modifications: citrullinated” value is “R2 : Deamidated (R), with neutral losses 43.0058(shown in table), 0.0000”.
